No constants are given. Whether binding was seen depends on the method and setting.
Biological target: untagged wild-type SMC2 (chicken (endogenous in DT40)) (UniProt Q90988)
Test: far-Western, overlay or dot blot; affinity blotting: crude lysate (input) and eluent run on 4-12% BisTris gels, blots probed with HRP- or AP-conjugated streptavidin for 1 h in 1% BSA/PBT; only the binder purified

The chains behind the UniProt entries cited, without tags or fusion partners.
UniProt Q90988: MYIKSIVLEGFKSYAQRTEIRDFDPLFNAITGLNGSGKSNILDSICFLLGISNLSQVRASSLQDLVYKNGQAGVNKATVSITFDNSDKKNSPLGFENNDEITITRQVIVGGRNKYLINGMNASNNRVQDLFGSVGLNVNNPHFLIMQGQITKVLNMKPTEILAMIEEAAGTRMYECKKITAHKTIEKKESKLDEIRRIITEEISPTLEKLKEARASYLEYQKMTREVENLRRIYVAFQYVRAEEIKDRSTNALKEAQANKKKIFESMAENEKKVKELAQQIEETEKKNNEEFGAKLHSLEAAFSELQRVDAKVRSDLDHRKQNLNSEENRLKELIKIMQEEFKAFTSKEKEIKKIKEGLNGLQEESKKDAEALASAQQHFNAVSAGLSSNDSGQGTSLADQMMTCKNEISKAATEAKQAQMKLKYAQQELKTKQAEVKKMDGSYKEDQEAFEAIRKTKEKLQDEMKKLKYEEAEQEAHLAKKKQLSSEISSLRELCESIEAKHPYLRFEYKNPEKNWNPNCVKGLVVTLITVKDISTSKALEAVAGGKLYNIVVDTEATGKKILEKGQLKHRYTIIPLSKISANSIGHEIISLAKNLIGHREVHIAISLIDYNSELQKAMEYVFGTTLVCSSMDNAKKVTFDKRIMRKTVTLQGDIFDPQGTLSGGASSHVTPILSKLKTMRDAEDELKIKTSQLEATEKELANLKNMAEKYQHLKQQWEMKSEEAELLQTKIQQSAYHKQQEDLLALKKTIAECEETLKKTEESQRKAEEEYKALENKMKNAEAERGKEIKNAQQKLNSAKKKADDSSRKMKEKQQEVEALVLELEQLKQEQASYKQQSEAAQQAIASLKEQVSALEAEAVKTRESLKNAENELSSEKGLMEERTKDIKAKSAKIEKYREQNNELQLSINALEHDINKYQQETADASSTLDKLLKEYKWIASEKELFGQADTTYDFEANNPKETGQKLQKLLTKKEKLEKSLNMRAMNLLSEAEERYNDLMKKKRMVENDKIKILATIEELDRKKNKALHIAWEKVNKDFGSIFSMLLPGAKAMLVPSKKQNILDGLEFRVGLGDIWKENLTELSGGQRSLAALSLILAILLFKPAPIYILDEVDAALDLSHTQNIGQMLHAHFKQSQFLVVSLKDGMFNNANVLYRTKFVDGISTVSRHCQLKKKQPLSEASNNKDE

binding: no binding
Substance: streptavidin (from UniProt P22629 25-183)

Source: PMC3022668
